Experimental data taken from article PMC9424271, “Invariant surface glycoprotein 65 of Trypanosoma brucei is a complement C3 receptor” (Nature Communications, 2022).
These are yes or no findings as the source states them, for the method shown. In cells and extracts the contact can be indirect. Some results given as binding are weak or reduced against the parent protein; the word gives no strength. Where a sequence is shown, tags or fusion partners need not be part of it.

Amino acid sequences for entries named in this document (tags omitted). A change or cut given only in a name is not applied to a line headed by its entry.
UniProt P01024: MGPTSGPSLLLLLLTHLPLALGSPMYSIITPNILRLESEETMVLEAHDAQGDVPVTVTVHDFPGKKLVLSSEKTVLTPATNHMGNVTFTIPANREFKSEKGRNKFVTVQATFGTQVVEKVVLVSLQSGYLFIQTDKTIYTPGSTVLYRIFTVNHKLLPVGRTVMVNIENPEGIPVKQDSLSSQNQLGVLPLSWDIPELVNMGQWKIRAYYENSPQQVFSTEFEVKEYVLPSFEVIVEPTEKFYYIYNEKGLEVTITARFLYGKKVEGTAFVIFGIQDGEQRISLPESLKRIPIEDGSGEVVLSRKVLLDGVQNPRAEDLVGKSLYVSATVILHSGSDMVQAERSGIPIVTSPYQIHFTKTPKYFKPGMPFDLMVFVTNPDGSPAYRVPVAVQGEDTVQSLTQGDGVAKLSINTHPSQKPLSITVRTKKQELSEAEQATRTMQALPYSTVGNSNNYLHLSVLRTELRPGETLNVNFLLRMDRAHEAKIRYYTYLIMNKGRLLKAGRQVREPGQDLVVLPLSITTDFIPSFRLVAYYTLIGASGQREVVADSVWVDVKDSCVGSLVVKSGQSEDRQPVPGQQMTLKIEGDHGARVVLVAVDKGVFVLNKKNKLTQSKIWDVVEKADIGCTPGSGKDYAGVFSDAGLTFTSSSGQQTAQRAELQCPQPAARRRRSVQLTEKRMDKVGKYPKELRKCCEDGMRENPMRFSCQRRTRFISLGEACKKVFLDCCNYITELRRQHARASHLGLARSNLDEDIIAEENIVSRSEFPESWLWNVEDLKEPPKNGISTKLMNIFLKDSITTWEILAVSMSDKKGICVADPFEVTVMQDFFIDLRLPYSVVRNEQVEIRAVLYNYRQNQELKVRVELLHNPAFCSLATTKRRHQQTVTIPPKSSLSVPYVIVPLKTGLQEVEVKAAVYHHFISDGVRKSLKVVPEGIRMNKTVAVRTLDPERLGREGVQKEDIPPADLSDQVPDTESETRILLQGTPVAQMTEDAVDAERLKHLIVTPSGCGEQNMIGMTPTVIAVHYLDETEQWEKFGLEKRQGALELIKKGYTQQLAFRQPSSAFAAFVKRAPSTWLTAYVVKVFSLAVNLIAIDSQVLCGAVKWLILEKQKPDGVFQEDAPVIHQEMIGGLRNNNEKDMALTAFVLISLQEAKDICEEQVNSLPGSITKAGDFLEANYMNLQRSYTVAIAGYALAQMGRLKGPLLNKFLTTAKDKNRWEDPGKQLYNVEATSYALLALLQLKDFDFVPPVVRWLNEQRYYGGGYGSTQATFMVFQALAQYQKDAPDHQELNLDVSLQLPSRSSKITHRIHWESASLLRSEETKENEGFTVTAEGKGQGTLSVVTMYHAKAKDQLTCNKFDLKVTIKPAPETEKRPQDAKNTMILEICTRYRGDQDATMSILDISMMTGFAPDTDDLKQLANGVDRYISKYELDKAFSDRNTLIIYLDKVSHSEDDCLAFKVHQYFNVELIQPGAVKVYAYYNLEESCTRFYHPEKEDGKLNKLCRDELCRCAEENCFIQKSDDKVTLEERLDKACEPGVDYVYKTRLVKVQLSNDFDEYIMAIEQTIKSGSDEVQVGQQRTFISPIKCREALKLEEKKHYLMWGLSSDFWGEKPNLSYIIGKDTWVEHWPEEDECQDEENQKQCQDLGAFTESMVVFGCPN

Biological target: T1, avi-tagged ISG65 E1125G on streptavidin agarose beads (T. brucei EATRO1125)
T1 sequence (chain, biotin on the AviTag): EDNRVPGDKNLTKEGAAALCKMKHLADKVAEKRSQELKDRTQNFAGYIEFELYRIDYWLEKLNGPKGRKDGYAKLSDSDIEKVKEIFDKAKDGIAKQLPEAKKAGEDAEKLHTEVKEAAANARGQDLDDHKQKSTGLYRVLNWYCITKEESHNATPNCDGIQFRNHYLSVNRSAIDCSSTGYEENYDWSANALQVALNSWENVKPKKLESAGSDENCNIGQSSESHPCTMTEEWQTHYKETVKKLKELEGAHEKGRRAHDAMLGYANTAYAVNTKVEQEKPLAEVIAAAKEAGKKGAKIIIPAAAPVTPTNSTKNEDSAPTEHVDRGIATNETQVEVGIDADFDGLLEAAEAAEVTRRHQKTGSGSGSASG
Test: pull-down; avi-tagged ISG65 E1125G on streptavidin agarose beads; serum of each species added by gravity flow; washed three times with HBS pH 7.4; eluted with 0.1 M sodium acetate pH 4, 500 mM NaCl; most intense band identified by trypsin-digest mass spectrometry; only the target purified

For “Complement C3, human, from serum (from UniProt P01024)”, the binding was “binds”.
